# This is one part of the list.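 How the source made its calls: active = dose-dependent thermal stabilisation significant by F-test of dose-response against flat model at 10% FDR; inactive = not significant.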
# Chains of the proteins cited; added tags and fusions are not shown. Lines headed by an entry give the natural chain unless they say otherwise; changes in a name come on top.
# UniProt P38398, whole entry, looked up: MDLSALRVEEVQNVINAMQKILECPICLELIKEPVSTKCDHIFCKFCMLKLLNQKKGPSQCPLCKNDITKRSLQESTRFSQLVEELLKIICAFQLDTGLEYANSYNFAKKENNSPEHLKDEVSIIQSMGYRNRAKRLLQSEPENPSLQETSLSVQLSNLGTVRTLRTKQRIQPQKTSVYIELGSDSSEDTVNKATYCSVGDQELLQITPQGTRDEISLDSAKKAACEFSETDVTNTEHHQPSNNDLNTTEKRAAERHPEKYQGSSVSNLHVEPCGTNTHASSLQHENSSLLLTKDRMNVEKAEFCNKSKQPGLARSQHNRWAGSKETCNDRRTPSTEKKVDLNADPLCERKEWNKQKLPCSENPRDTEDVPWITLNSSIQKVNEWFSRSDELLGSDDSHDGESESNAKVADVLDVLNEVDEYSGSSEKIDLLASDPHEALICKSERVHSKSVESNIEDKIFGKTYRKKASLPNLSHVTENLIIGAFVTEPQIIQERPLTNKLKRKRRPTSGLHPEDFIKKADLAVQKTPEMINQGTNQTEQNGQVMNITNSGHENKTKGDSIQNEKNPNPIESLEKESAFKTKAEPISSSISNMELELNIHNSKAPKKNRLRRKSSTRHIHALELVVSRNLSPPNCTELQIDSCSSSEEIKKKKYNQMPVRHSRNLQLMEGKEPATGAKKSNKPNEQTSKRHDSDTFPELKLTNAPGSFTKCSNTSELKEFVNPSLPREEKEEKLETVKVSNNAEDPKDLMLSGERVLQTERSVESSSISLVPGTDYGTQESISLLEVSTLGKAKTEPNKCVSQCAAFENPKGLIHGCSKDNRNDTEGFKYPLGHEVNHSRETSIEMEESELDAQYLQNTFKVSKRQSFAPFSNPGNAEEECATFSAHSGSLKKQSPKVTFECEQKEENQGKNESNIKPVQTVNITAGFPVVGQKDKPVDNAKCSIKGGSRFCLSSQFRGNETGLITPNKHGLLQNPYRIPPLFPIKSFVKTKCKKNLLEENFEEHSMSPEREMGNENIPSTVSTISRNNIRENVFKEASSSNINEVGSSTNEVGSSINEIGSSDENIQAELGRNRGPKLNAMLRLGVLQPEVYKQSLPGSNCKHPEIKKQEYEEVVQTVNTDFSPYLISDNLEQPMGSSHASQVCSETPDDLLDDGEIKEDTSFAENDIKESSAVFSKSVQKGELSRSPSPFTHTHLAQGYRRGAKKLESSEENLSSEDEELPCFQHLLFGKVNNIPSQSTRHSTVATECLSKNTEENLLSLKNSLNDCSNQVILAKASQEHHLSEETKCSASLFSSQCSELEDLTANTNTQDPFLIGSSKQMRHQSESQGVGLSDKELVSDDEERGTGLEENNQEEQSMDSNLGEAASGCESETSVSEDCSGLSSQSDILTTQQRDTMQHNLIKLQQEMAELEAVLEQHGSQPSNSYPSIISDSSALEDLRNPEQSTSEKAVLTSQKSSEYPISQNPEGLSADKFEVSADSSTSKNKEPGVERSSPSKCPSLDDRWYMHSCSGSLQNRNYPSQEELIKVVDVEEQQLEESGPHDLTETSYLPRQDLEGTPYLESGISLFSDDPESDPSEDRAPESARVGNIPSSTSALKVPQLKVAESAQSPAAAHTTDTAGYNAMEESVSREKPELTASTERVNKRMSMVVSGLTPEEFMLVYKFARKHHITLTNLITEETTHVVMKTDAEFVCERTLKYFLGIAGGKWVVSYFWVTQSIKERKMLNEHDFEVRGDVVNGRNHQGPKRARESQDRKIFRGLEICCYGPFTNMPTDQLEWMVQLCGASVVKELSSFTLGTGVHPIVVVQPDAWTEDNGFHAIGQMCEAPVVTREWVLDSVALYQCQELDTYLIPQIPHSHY
# UniProt Q9P287, whole entry: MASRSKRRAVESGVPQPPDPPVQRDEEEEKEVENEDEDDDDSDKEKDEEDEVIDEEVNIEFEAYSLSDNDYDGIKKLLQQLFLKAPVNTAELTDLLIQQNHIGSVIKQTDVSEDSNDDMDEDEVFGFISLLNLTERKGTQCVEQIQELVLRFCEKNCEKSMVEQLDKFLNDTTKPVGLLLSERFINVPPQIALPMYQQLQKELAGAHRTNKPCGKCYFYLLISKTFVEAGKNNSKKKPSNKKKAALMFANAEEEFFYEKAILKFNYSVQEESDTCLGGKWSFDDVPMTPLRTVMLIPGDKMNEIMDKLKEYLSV
# UniProt Q9NXR7, whole entry: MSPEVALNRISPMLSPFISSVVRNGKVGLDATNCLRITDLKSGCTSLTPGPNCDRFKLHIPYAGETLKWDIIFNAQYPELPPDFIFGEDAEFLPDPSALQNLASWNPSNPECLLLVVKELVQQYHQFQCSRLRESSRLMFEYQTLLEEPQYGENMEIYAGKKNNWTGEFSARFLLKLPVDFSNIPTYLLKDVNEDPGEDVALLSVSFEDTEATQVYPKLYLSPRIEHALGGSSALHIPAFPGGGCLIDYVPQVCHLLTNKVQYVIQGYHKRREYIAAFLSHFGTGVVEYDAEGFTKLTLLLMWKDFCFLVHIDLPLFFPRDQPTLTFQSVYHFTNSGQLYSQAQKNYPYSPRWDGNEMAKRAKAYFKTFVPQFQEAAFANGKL
# UniProt O75348, whole entry: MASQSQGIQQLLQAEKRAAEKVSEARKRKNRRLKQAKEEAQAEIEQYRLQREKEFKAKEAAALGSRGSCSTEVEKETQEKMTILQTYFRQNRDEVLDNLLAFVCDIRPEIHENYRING
# UniProt Q8N999, whole entry: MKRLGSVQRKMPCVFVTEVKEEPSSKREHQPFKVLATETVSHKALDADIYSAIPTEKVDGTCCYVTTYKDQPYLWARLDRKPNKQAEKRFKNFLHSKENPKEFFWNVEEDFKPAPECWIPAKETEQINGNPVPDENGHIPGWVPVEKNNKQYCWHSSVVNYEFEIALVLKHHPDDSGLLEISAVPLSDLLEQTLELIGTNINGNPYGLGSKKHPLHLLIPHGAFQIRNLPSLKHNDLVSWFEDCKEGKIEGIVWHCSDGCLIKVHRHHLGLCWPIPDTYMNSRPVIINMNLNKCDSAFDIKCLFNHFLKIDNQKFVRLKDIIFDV
# UniProt O43683: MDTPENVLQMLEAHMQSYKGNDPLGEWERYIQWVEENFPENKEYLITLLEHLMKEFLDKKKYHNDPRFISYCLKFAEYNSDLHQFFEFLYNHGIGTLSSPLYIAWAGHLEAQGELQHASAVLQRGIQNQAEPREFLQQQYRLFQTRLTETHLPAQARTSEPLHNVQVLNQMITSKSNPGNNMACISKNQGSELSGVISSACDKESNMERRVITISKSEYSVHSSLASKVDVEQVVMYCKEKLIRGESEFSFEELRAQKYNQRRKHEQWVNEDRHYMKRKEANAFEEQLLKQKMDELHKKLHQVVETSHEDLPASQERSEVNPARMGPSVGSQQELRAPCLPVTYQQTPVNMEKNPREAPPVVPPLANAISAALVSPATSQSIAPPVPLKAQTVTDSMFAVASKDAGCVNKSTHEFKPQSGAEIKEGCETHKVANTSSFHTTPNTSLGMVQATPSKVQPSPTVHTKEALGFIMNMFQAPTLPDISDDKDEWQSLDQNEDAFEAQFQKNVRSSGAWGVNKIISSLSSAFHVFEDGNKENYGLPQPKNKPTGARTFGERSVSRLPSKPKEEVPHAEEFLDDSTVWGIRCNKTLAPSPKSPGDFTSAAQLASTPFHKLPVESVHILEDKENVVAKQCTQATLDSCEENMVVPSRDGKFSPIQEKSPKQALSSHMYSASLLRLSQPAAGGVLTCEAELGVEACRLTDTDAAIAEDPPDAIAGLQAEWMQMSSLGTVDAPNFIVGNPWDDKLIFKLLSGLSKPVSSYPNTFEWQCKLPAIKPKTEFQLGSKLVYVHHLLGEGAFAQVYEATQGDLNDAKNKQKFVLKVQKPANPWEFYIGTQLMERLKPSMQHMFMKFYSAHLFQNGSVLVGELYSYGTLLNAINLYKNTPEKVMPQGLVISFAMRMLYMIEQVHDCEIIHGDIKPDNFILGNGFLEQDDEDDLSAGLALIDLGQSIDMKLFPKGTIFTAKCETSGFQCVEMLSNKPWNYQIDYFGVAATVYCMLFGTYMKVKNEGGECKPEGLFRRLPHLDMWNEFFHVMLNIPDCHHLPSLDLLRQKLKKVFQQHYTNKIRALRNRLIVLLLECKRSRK
# UniProt Q9NUP1: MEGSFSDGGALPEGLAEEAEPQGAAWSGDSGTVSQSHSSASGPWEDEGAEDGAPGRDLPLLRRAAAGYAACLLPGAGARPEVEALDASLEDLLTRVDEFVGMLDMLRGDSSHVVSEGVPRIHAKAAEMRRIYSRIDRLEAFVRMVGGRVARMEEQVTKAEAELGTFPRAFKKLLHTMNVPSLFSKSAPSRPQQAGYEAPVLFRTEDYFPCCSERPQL
# UniProt Q9Y376: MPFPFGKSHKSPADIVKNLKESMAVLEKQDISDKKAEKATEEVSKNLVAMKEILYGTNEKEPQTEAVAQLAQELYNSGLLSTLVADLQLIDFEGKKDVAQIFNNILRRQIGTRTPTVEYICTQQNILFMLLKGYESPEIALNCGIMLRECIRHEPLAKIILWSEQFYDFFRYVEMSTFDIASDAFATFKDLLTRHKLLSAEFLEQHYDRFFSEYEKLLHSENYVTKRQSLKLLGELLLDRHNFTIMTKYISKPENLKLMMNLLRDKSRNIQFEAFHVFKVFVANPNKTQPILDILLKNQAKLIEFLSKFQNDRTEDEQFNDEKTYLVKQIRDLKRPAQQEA
# UniProt Q6P1X6: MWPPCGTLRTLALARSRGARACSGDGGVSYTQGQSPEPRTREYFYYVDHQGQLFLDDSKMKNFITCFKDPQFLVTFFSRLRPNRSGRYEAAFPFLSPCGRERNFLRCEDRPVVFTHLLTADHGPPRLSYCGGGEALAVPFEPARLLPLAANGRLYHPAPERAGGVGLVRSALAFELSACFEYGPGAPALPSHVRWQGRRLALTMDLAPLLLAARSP
# UniProt P07738: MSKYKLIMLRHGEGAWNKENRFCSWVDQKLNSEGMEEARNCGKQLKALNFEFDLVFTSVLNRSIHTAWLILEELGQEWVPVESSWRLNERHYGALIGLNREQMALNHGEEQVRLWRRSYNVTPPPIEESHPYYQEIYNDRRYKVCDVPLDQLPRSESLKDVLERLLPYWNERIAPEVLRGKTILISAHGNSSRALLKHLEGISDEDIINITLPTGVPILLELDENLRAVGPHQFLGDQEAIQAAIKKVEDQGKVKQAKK
# UniProt Q5TC12: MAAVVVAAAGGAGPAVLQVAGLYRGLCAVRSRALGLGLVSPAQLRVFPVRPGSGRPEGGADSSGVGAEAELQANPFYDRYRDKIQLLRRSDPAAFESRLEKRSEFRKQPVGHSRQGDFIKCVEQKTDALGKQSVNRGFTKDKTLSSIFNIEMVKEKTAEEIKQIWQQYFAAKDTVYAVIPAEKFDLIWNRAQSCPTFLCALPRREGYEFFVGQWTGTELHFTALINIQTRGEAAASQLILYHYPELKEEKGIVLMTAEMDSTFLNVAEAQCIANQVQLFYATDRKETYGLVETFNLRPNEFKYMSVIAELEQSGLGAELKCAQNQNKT
# UniProt Q53S33: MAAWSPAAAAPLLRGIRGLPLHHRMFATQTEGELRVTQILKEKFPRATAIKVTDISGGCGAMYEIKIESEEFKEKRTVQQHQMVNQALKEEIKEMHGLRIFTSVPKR
# UniProt Q92560: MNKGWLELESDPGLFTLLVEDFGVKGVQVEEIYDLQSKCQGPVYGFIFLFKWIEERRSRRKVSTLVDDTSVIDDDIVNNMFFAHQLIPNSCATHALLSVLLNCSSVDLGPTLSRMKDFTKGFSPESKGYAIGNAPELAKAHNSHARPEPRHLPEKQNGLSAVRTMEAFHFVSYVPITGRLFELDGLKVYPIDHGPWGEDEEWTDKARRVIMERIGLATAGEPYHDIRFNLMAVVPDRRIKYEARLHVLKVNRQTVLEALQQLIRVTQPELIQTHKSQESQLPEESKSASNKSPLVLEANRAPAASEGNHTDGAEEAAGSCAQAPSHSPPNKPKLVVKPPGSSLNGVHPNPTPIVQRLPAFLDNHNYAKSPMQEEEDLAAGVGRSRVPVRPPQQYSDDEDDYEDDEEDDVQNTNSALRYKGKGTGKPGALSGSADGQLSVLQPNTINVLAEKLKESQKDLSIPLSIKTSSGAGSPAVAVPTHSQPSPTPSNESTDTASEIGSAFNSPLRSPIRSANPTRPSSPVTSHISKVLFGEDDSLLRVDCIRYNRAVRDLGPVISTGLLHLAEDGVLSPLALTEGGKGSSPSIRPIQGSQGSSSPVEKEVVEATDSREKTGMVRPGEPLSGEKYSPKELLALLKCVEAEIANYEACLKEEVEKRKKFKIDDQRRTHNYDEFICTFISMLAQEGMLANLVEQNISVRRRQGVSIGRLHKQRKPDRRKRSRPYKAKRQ
# UniProt Q8IYL3: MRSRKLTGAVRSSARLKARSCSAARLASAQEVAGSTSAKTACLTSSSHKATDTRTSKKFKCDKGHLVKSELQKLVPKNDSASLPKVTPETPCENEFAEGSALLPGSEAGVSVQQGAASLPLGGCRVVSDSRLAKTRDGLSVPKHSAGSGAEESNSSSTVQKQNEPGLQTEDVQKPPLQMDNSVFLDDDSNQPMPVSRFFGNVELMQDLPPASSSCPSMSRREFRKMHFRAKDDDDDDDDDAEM
# Compound: Nc1nc2c(ncn2[C@@H]2O[C@H](COP(=O)(O)OP(=O)(O)OP(=O)(O)O)[C@@H](O)[C@H]2O)c(=O)[nH]1
# Assay: dose-dependent thermal stabilisation call (2D-TPP, DLPTP, 10% FDR) (binary (1 = stabilised)); higher = stabilised by the compound
# Details: system: Jurkat gel-filtered lysate; concentration range 1-500 µM
row,Target,dose-dependent thermal stabilisation call
1,ATP6V1H (UniProt Q9UI12),inactive: 0
2,BRCA1 (UniProt P38398),inactive: 0
3,BRAF (UniProt P15056),active: 1
4,BCCIP (UniProt Q9P287),inactive: 0
5,AVL9 (UniProt Q8NBF6),inactive: 0
6,BABAM2 (UniProt Q9NXR7),inactive: 0
7,ATP6V1G1 (UniProt O75348),inactive: 0
8,CAAP1 (UniProt Q9H8G2),inactive: 0
9,BBX (UniProt Q8WY36),inactive: 0
10,C12orf29 (UniProt Q8N999),inactive: 0
11,ASAP1 (UniProt Q9ULH1),inactive: 0
12,BUB1 (UniProt O43683),inactive: 0
13,BLOC1S4 (UniProt Q9NUP1),inactive: 0
14,CAB39 (UniProt Q9Y376),inactive: 0
15,C8orf82 (UniProt Q6P1X6),inactive: 0
16,C19orf54 (UniProt Q5BKX5),active: 1
17,BCOR (UniProt Q6W2J9),inactive: 0
18,BPGM (UniProt P07738),active: 1
19,ATPAF1 (UniProt Q5TC12),inactive: 0
20,BOLA3 (UniProt Q53S33),inactive: 0
21,BAP1 (UniProt Q92560),inactive: 0
22,BCAT2 (UniProt O15382),inactive: 0
23,ATF7IP (UniProt Q6VMQ6),inactive: 0
24,ARIH1 (UniProt Q9Y4X5),inactive: 0
25,BCL9 (UniProt O00512),inactive: 0
26,ATG2B (UniProt Q96BY7),inactive: 0
27,C1orf174 (UniProt Q8IYL3),inactive: 0

# As a working copy, part of the list above:
row,Target,dose-dependent thermal stabilisation call
20,BOLA3 (UniProt Q53S33),inactive: 0
21,BAP1 (UniProt Q92560),inactive: 0

# — the supplement of paper PMC7666118
